Values of other authors as cited in patent publication US11219663B2, “Composition containing cyclic dipeptide and sweetening agent” (SUNTORY HOLDINGS LIMITED, priority 2015, dated 2022).

Conditions: sweetness degree of sucrose specified as 1; cited from earlier work

| Compound | Sweetness degree |
| --- | --- |
| OC[C@@H](O)[C@H](O)[C@@H](O)CO [xylitol] | 0.60 |
| rebaudioside B [RebB] | 300 |
| C=C1C[C@@]23CC[C@H]4[C@@](C)(CCC[C@@]4(C)C(=O)O[C@@H]4O[C@H](CO)[C@@H](O)[C@H](O)[C@H]4O)[C@@H]2CC[C@]1(O[C@@H]1O[C@H](CO)[C@@H](O)[C@H](O)[C@H]1O[C@@H]1O[C@H](CO)[C@@H](O)[C@H](O)[C@H]1O)C3 [Stevioside, stevioside] | 300 |
| CC1=CC(=O)NS(=O)(=O)O1 [Acesulfame K, acesulfame potassium] | 200 |
| C=C1C[C@@]23CC[C@H]4[C@@](C)(CCC[C@@]4(C)C(=O)O[C@@H]4O[C@H](CO)[C@@H](O)[C@H](O)[C@H]4O)[C@@H]2CC[C@]1(O[C@@H]1O[C@H](CO)[C@@H](O)[C@H](O[C@@H]2O[C@H](CO)[C@@H](O)[C@H](O)[C@H]2O)[C@H]1O[C@@H]1O[C@H](CO)[C@@H](O)[C@H](O)[C@H]1O)C3 [RebA, rebaudioside A] | 450 |
| OC[C@@H](O)[C@@H](O)[C@H](O)[C@H](O)CO [mannitol] | 0.60 |
| rebaudioside C [RebC] | 30 |
| C=C1C[C@@]23CC[C@H]4[C@@](C)(CCC[C@@]4(C)C(=O)O[C@@H]4O[C@H](CO)[C@@H](O)[C@H](O)[C@H]4O[C@@H]4O[C@H](CO)[C@@H](O)[C@H](O)[C@H]4O)[C@@H]2CC[C@]1(O[C@@H]1O[C@H](CO)[C@@H](O)[C@H](O[C@@H]2O[C@H](CO)[C@@H](O)[C@H](O)[C@H]2O)[C@H]1O[C@@H]1O[C@H](CO)[C@@H](O)[C@H](O)[C@H]1O)C3 [RebD, rebaudioside D] | 285 |
| O=C(CO)[C@@H](O)[C@H](O)[C@H](O)CO [fructose] | 1.73 |
| OC[C@H]1O[C@H](O[C@]2(CCl)O[C@H](CCl)[C@@H](O)[C@@H]2O)[C@H](O)[C@@H](O)[C@H]1Cl [Sucralose, sucralose] | 600 |
